Results from one PubChem assay

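Luminescence from an EWS-FLI1 target-promoter (NR0B1) reporter, set against a CMV-promoter reporter, two days after silencing single genes in TC32 Ewing sarcoma cells. Each siRNA was applied at 20 nM. A z-score of the log NR0B1-over-CMV signal, less the median of siRNAs with the same seed; more negative means a stronger specific loss of the NR0B1 reporter.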

The strongest results of the screen are mostly left out here. Sequences are the guide (antisense) strand, without overhang.

siRNA: UACUCAACAAGACCUAAUG
target gene: PSMG2
seed-corrected z-score: 0.6885

siRNA: AGACUUAUUAGGGAUACAG
target gene: WISP3
seed-corrected z-score: -0.4978

siRNA: UUCUUGUCUGGUUACUUUC
target gene: C10orf11
seed-corrected z-score: -0.5488

siRNA: UCACGCAUCACCACAUCUG
target gene: DMBX1
seed-corrected z-score: -0.2283

siRNA: UUUCGAGCCGUCUUUAGCC
target gene: FKBP7
seed-corrected z-score: 0.0357

siRNA: UGCUGUAUAUGCUUUCAUC
target gene: CCR4
seed-corrected z-score: 1.692

siRNA: AUAUGGAUUAAUGAUUAGC
target gene: CLN8
seed-corrected z-score: 1.224

siRNA: ACGUGAUUAAUGAAAGUCC
target gene: ATP8B4
seed-corrected z-score: 0.2923

siRNA: UCAGUGUCACAUGACUUCA
target gene: KRTAP4-6
seed-corrected z-score: 0.007847

siRNA: UUGAAGUCAAGAUCGUACU
target gene: ENO3
seed-corrected z-score: 0.1718

siRNA: UUUUCACAAACAUCUUCUC
target gene: NPS
seed-corrected z-score: 0.2193

siRNA: UUUUCAGUCUCCAUAGUGG
target gene: TP53RK
seed-corrected z-score: 0.2958

siRNA: UGUGCGUACAGCAAUGUGG
target gene: DALRD3
seed-corrected z-score: -0.3462

siRNA: UUCUGGAUAGAGACUAAUC
target gene: NDUFAF4
seed-corrected z-score: -0.6587

siRNA: UCAAUAUCCACAGGCUUGC
target gene: COL19A1
seed-corrected z-score: 0.5732

siRNA: UCCUUGUAAGCAUCAGCUU
target gene: HMGN2P16
seed-corrected z-score: -0.1374

siRNA: UAGCGGGCGAAGUCAAAGG
target gene: B3GNT9
seed-corrected z-score: 0.5172

siRNA: UGUAAUCCCACUAAGAACC
target gene: LOC400099
seed-corrected z-score: -0.358

siRNA: UUCAAUACCAGAGAUAUUG
target gene: BTF3
seed-corrected z-score: -0.2419

siRNA: UCCGGUUUGAUCAAUUGCC
target gene: ADGRE2
seed-corrected z-score: -0.1403

siRNA: UGGGUAUUCAAAGAGAAGC
target gene: KCNA2
seed-corrected z-score: -0.3749

siRNA: UUUUGGGCAGGCUACAUGG
target gene: CCDC14
seed-corrected z-score: -0.06276

siRNA: UGCUCGUCGAUGAAGCAGC
target gene: IGLON5
seed-corrected z-score: -1.168

siRNA: UUCAUUAACAUUCGUCGGC
target gene: FAM98B
seed-corrected z-score: -0.296

siRNA: UUUGAGCUCCCGGUGGUAC
target gene: LRTM2
seed-corrected z-score: 0.1317

siRNA: UUAGAGUAGAAUUACAACC
target gene: ZNF572
seed-corrected z-score: 0.01804

siRNA: UUUCCAAUAGAGAAACAUC
target gene: RPRD1B
seed-corrected z-score: 0.1332

siRNA: UCCGGAAGCAUGAUGAUCA
target gene: SERPINB6
seed-corrected z-score: 0.2062

siRNA: ACAUGGAUGCUGUAAGUGC
target gene: SEZ6L2
seed-corrected z-score: 0.2489

siRNA: UGAGCAACGAUGUCCCAUC
target gene: OASL
seed-corrected z-score: -0.6971

siRNA: UAUGUGACACCAAAUCCUC
target gene: RNF8
seed-corrected z-score: -0.6829

siRNA: UUCUGGAAUAUAGUGUCCC
target gene: PRKCD
seed-corrected z-score: -0.02776

siRNA: UCAAUAUAAACCUUCAUUC
target gene: EPHB3
seed-corrected z-score: 0.6322

siRNA: UGUUGUAUCAGGUCCCUGU
target gene: FAM215B
seed-corrected z-score: -1.171

siRNA: AUAGGAACCAGGUCUUCGG
target gene: DDX51
seed-corrected z-score: 0.07038

siRNA: UAAAGUCGGAUCAUUAGGC
target gene: ABCA12
seed-corrected z-score: 0.3514

siRNA: AGUCAUCAAACUUAUAUCC
target gene: LOC440386
seed-corrected z-score: 0.4747

siRNA: AGUAUUAUAACGAAUAUCC
target gene: ANKRD7
seed-corrected z-score: 0.1258

siRNA: AGAUCUGUCAUCAUAAGGC
target gene: KIAA0430
seed-corrected z-score: -0.2995

siRNA: UAAGGUGCCUCUUUCCAUC
target gene: MAGEB4
seed-corrected z-score: -0.7335

siRNA: UCCAUUGCUCAUGUUGUCU
target gene: TMEM196
seed-corrected z-score: 1.868

The last 5 entries again:

* AGUCAUCAAACUUAUAUCC against LOC440386 : seed-corrected z-score 0.4747
* AGUAUUAUAACGAAUAUCC against ANKRD7 : seed-corrected z-score 0.1258
* AGAUCUGUCAUCAUAAGGC against KIAA0430 : seed-corrected z-score -0.2995
* UAAGGUGCCUCUUUCCAUC against MAGEB4 : seed-corrected z-score -0.7335
* UCCAUUGCUCAUGUUGUCU against TMEM196 : seed-corrected z-score 1.868

Source: PubChem BioAssay AID1159506 (NCATS, 2015).